In patent publication US12351616B2, “Peptides and combination of peptides for use in immunotherapy against esophageal cancer and other cancers” (Immatics Biotechnologies GmbH, priority 2015, dated 2025):

Tests used:
[1] = tested on: other cancer tissue samples; test: LC-MS detection of the peptide on other cancer samples (FIG. 1 legend); set-up: species or system human; settings: for peptide additionally detected on lung cancers: positive/measured lung cancer samples; for peptide additionally detected on gastric cancers: positive/measured gastric cancer samples; for peptide additionally detected on ovarian cancers: positive/measured ovarian cancer samples; for peptide additionally detected on urinary bladder cancers: positive/measured urinary bladder cancer samples
[2] = tested on: esophageal cancer samples versus a panel of normal tissues; test: Label-free relative LC-MS quantitation of HLA-presented peptides (presentation profile/score); set-up: species or system human; key: very highly over-presented on tumors compared to a panel of normal tissues (+++); highly over-presented on tumors compared to a panel of normal tissues (++); over-presented on tumors compared to a panel of normal tissues (+); settings: tumors compared to a panel of normal tissues

Substance	Peptide Presentation [2]	further results
SEQ ID NO: 1 (STYGGGLSV; listed as Homo sapiens)		peptide additionally detected on lung cancers [1]: 4/91
SEQ ID NO: 37 (YTQPFSHYGQAL; listed as Homo sapiens)		peptide additionally detected on gastric cancers [1]: 7/46; peptide additionally detected on lung cancers [1]: 1/91; peptide additionally detected on pancreatic cancers ([1]; positive/measured pancreatic cancer samples): 1/19
SEQ ID NO: 7 (SIFEGLLSGV; listed as Homo sapiens)		peptide additionally detected on gallbladder cancers ([1]; positive/measured gallbladder cancer samples): 1/3; peptide additionally detected on lung cancers [1]: 5/91; peptide additionally detected on ovarian cancers [1]: 1/20; peptide additionally detected on prostate cancers ([1]; positive/measured prostate cancer samples): 1/43; peptide additionally detected on urinary bladder cancers [1]: 1/4
SEQ ID NO: 34 (SLVSEQLEPA; listed as Homo sapiens)		peptide additionally detected on colorectal cancers ([1]; positive/measured colorectal cancer samples): 8/24; peptide additionally detected on gastric cancers [1]: 1/46; peptide additionally detected on lung cancers [1]: 5/91; peptide additionally detected on ovarian cancers [1]: 1/20; peptide additionally detected on urinary bladder cancers [1]: 2/4
25 (LLPPPPPPA; listed as Homo sapiens) [compound 25]	+++	
82 (HLLGHLEQA; listed as Homo sapiens) [compound 82]	+++	
58 (LILESIPVV; listed as Homo sapiens) [compound 58]	+++	
87 (FLDNGPKTI; listed as Homo sapiens) [compound 87]	+	
26 (MLAEKLLQA; listed as Homo sapiens) [compound 26]	+++	
37 (YTQPFSHYGQAL; listed as Homo sapiens) [compound 37]	+++	
94 (TLLQEQGTKTV; listed as Homo sapiens) [compound 94]	+	
75 (GLMDDVDFKA; listed as Homo sapiens) [compound 75]	+	
18 (FLLDQVQLGL; listed as Homo sapiens) [compound 18]	+++	
16 (VLAEGGEGV; listed as Homo sapiens) [compound 16]	+++	
30 (SLNGNQVTV; listed as Homo sapiens) [compound 30]	+++	
68 (PAVLQSSGLYSL; listed as Homo sapiens) [compound 68]	+++	
78 (KVANIIAEV; listed as Homo sapiens) [compound 78]	+	
48 (SMHQMLDQTL; listed as Homo sapiens) [compound 48]	+++	
24 (LLFAGTMTV; listed as Homo sapiens) [compound 24]	+++	
63 (LAYTLGVKQL; listed as Homo sapiens) [compound 63]	+++	
77 (VLVPYEPPQV; listed as Homo sapiens) [compound 77]	++	
